Assay results reported in article PMC3435375.

Key:
[1] = target: GST-K1BFERM, the FERM domain of KRIT1B fused to GST; assay: pull-down; GST fusion proteins (40 ug) immobilised on glutathione-sepharose 4B beads, incubated 1 h at room temperature with HEK293 lysates overexpressing GFP- or 2FLAG-tagged proteins; washed three times with PBS; anti-GFP or anti-FLAG western blot; only the target purified
[2] = target: GFP-KRIT1B (EGFP-tagged KRIT1B, pEGFP-KRIT1B); assay: co-IP; HEK293 cells co-transfected with EGFP-KRIT1A or EGFP-KRIT1B and 2FLAG-Nd1-L; precipitated with anti-KRIT1, blotted with anti-FLAG
[3] = target: GAL4BD fusion of K1BΔ207, the N-terminal truncated portion of KRIT1B (208-697); assay: two-hybrid; small-scale assay; pGADT7-Nd1-L cotransformed with pGBKT7 KRIT1 constructs into AH109; growth on medium lacking His and Ade (HIS3, ADE2) and beta-galactosidase filter assay (LACZ)
[4] = target: GAL4BD fusion of full-length KRIT1B (pGBKT7); assay: as above
[5] = target: GAL4BD fusion of K1BFERM, the FERM domain of KRIT1B (418-697) (pGBKT7-K1BFERM); assay: as above

B1: 2FLAG-Nd1-L (pCR-2FLAG-Nd1-L, murine full-length Nd1-L) (protein, UniProt Q920Q8-1 1-642)
chain: MIPNGYLMFEDENFIESSVAKLNALRKSGQFCDVRLQVCGHEMLAHRAVLACCSPYLFEIFNSDSDPHGVSHVKLDDLNPEAVEVLLNYAYTAQLKADKELVKDVYSAAKKLKMDRVKQVCGDYLLSRMDVTSCISYRNFASCMGDSRLLNKVDAYIQEHLLQISEEEEFLKLPRLKLEVMLEDNVCLPSNGKLYTKVINWVQRSIWENGDSLEELMEEVQTLYYSADHKLLDGNPLDGQAEVFGSDDDHIQFVQKKPPRENGHKQISGSSTGCLSSPNASMQSPKHEWKIVASEKTSNNTYLCLAVLDSTFCVIFLHGRNSPQSSPTSTPKLSKSLSFEMQPDELLEKPMSPMQYARSGLGTAEMNGKLIAAGGYNREECLRTVECYDPHTDHWSFLAPMRTPRARFQMAVLMGQLYVVGGSNGHSDDLSCGEMYDPNIDDWTPVPELRTNRCNAGVCALNGKLYIVGGSDPYGQKGLKNCDVFDPVTKSWTSCAPLNIRRHQSAVCELGGYLYIIGGAESWNCLNTVERYNPENNTWTLIAPMNVARRGAGVAVLDGKLFVGGGFDGSHAISCVEMYDPTRNEWKMMGNMTSPRSNAGITTVGNTIYAVGGFDGNEFLNTVEVYNPQSNEWSPYTKIFQF
binding [1]: no binding | binding [2]: no binding

B2: GAL4AD fusion of full-length Nd1-L (pGADT7-Nd1-L) (protein, UniProt Q920Q8-1 1-642)
chain: MIPNGYLMFEDENFIESSVAKLNALRKSGQFCDVRLQVCGHEMLAHRAVLACCSPYLFEIFNSDSDPHGVSHVKLDDLNPEAVEVLLNYAYTAQLKADKELVKDVYSAAKKLKMDRVKQVCGDYLLSRMDVTSCISYRNFASCMGDSRLLNKVDAYIQEHLLQISEEEEFLKLPRLKLEVMLEDNVCLPSNGKLYTKVINWVQRSIWENGDSLEELMEEVQTLYYSADHKLLDGNPLDGQAEVFGSDDDHIQFVQKKPPRENGHKQISGSSTGCLSSPNASMQSPKHEWKIVASEKTSNNTYLCLAVLDSTFCVIFLHGRNSPQSSPTSTPKLSKSLSFEMQPDELLEKPMSPMQYARSGLGTAEMNGKLIAAGGYNREECLRTVECYDPHTDHWSFLAPMRTPRARFQMAVLMGQLYVVGGSNGHSDDLSCGEMYDPNIDDWTPVPELRTNRCNAGVCALNGKLYIVGGSDPYGQKGLKNCDVFDPVTKSWTSCAPLNIRRHQSAVCELGGYLYIIGGAESWNCLNTVERYNPENNTWTLIAPMNVARRGAGVAVLDGKLFVGGGFDGSHAISCVEMYDPTRNEWKMMGNMTSPRSNAGITTVGNTIYAVGGFDGNEFLNTVEVYNPQSNEWSPYTKIFQF
binding [3]: no binding | binding [4]: no binding | binding [5]: no binding

Results are given in words; binding and its absence hold for the method and conditions named. For some assays here: In cells and extracts the contact can be indirect. Sequences can lack the tags named with a protein.
